Some of the results follow.
What follows are compounds tested on T1, CTL2-GFP (C. trachomatis L2/434/Bu, GFP-expressing). Settings: bulk GFP, single well; 28.5 h, 10 µM; inhibitor.
T1 construct: L2/434/Bu, GFP-expressing
Parameters: species or system HeLa; Intracellular C. trachomatis growth in HeLa cells, bulk GFP fluorescence relative to DMSO

SMILES | % of control remaining [%]
COc1ccccc1C1CCCN1Cc1c(C)nc2ccccn12 (stereo not shown) [CBK281995] | 118.191
Cc1csc2c(C3CCN(C(=O)c4ccncc4)CC3)nc(C)n12 [CBK285243] | 120.601
CC(=O)c1ccc(-c2cc(N3CCN(C(=O)c4ccco4)CC3)ncn2)s1 [CBK036999] | 113.959
Cc1cc(Cl)ccc1OCC(=O)NC(=S)Nc1cccc(-c2nc3ccccc3s2)c1 [CBK264802] | 132.497
CN1CCC(C(=O)NC(=O)NC2CCCCC2)CC1 [CBK034825] | 105.327
Cc1c(S(=O)(=O)NC(C)CCCC(C)(C)O)sc2ccc(Cl)cc12 (stereo not shown) [CBK062467] | 130.264
O=C(NCCCOc1ccccc1)N1CCN(S(=O)(=O)c2ccc(C(F)(F)F)cc2)CC1 [CBK296686] | 114.09
COc1cc(OC)cc(C(=O)N2CCC3(CC2)CC(=O)c2ccc(OCCN(C)C)cc2O3)c1 [CBK169008T] | 89.2694
COC(=O)Cc1c(O)nn(C)c1Cc1cccc(C(F)(F)F)c1 [CBK006608] | 105.733
COc1ccc(CN2C(=O)CC3(C2=O)C(=O)N(Cc2ccccc2)c2ccc(F)cc23)cc1OC (stereo not shown) [CBK075174] | 99.3063
O=C(NC(=O)C1CCNCC1)Nc1ccc(F)cc1F [CBK034793] | 86.0126
O=C(O)CCC(C(=O)O)N1C(=O)/C(=C\C(Cl)=C/c2ccc([N+](=O)[O-])cc2)SC1=S (stereo not shown) [CBK261011] | 115.938
CC(=O)NCCSc1cncc(NC(C)C)n1 [CBK105291] | 125.601
O=C(CN(c1cccc(Cl)c1)S(=O)(=O)c1ccc(Cl)cc1)NCc1ccco1 [CBK265356] | 113.7
COc1ccc([C@@]23CC[C@@H](NC(=O)Nc4ccnc5ccccc45)C[C@@H]2N(C)CC3)cc1OC [CBK045699] | 122.317
CCOC(=O)c1ccc(NC(=S)NC(=O)c2ccc(C)c(C)c2)cc1 [CBK264004] | 100
CC(=O)NCCN(Cc1ccc(S(=O)(=O)N2CCOC2=O)cc1)Cc1ccoc1 [CBK024460] | 93.8769
Cc1cc(C)n(CCCC(=O)N2CCc3ncc(Cl)cc3C2)n1 [CBK284852] | 83.6532
COc1cc(/C=N/NC(=O)CC#N)ccc1OCc1ccccc1Cl [CBK263932] | 120.991
Cc1ncsc1C(=O)N1CCCC(c2cc3cnccc3[nH]2)C1 (stereo not shown) [CBK283461] | 131.924
Cc1cc(C)n(CC2CCCN2C(=O)CCCc2ccccn2)n1 (stereo not shown) [CBK305920] | 104.153
O=C(O)C(Cc1c[nH]c2ccccc12)N1Cc2ccccc2C1=O (stereo not shown) [CBK287056] | 136.64
CC(C)C(=O)NC(NC(=S)Nc1sc2c(c1C(N)=O)CCCC2)C(Cl)(Cl)Cl (stereo not shown) [CBK261050] | 99.2705
O=C(CSc1nnc(-c2ccccc2)n1C1CCCCC1)Nc1ccc(Cl)cc1Cl [CBK267424] | 162.673
CN1CCN(CCCNC(=O)N2CCN(c3ccc(F)cc3)CC2)CC1 [CBK156386] | 115.254
CCC(CN1CCCC1)NC(=O)Cc1ccc(OC)c(C)c1 (stereo not shown) [CBK282752] | 79.0096

A run of entries from the list above, as a working copy:
SMILES | % of control remaining [%]
O=C(O)CCC(C(=O)O)N1C(=O)/C(=C\C(Cl)=C/c2ccc([N+](=O)[O-])cc2)SC1=S (stereo not shown) [CBK261011] | 115.938
CC(=O)NCCSc1cncc(NC(C)C)n1 [CBK105291] | 125.601
O=C(CN(c1cccc(Cl)c1)S(=O)(=O)c1ccc(Cl)cc1)NCc1ccco1 [CBK265356] | 113.7

Next records.

SMILES | % of control remaining [%]
CC1(C)COC(=O)N1C1CCN(C(=O)c2ccno2)CC1 [CBK044383] | 124.263
CC(C)(C)c1csc(NC(=O)C2CC(=O)N(C3CCCC3)C2)n1 (stereo not shown) [CBK175544] | 92.5578
CSCCCN1CCn2nc(CNc3cnccn3)cc2C1 [CBK307136] | 150.945
Cn1nnc2cc(C(=O)N(CCO)c3ccccc3)ccc21 [CBK266522] | 150.746
Cc1ccc(C(=O)NC(Cc2cccs2)c2ccccn2)c(=O)[nH]1 (stereo not shown) [CBK285210] | 123.655
CCCN1CCC(NC(=O)Cn2c(C3CC3)nc3ccccc32)CC1 [CBK304917] | 128.972
Cc1cc(C)n2nc(S(N)(=O)=O)c(C#N)c2n1 [CBK025767] | 121.515
O=C(NC(C(=O)N/N=C/c1ccccc1O)c1n[nH]c(=O)c2ccccc12)c1ccccc1 (stereo not shown) [CBK261117] | 87.9342
O=C(c1cn2cc(-c3cccs3)n(CC3CC3)c(=O)c2n1)N1CCCC1 [CBK306756] | 117.076
CN1CCN(C(=O)c2n[nH]c3c2CCCC3)C(Cc2ccc(-c3cccs3)cc2)C1=O (stereo not shown) [CBK285812] | 121.544
Cc1ccc(S(=O)(=O)Nc2c(C(=O)N3CCN(C)CC3)[nH]c3ccccc23)cc1[N+](=O)[O-] [CBK050060] | 118.101
CCSc1nnc(-c2cccc(C)c2)n1CC1CCCO1 (stereo not shown) [CBK085413] | 121.213
O=C(Cc1ccc(F)cc1)N1CCn2c(nnc2C2CC2)C1 [CBK283688] | 98.4445
O=C(NC1CC1)c1ccc(-n2cccn2)c(C#Cc2ccccn2)c1 [CBK282272] | 124.199
COCCN(C)c1nc2c(c(=O)[nH]1)Cc1ccccc1OC2 [CBK306737] | 131.734
O=C(c1ccc2c(c1)C(=O)N(N1C(=O)c3ccccc3C1=O)C2=O)c1ccc2c(c1)C(=O)N(N1C(=O)c3ccccc3C1=O)C2=O [CBK261182] | 95.4397
Cn1nc(C(C)(C)C)c2cc(C(=O)N3CCn4nccc43)cnc21 [CBK305466] | 104.715
COc1cc(-c2nc(NC(=O)C(C)C)cc3ccccc23)cc(OC)c1OC [CBK085741] | 98.0914
Cc1cccc(CCNC(=O)CC2CCN(C(=O)CC3CCCCC3)CC2)c1 [CBK285964] | 92.238
CCCOC1CCCN(C(=O)c2cncc(F)c2)C1 (stereo not shown) [CBK304623] | 89.3144
O=c1c(C(F)(F)F)cccn1Cc1ccccc1 [CBK023620] | 107.311
COc1ccc2oc(C(=O)NC(C)c3cn(C)nc3C)cc2c1 (stereo not shown) [CBK281573] | 96.1765
Cc1cc(SCC2=NNC(=O)C2)c(Cl)cc1Cl [CBK067769] | 110.395
CCN(CCO)C(=O)c1cccc(-c2cnn(C(F)F)c2C)c1 [CBK307519] | 153.131
COc1ccccc1-c1nc(SCc2ccc(C(=O)O)cc2)n[nH]1 [CBK266631] | 155.114
Oc1ccc(SCCCCCN2CCCCC2)cc1 [CBK261488] | 80.6759

SMILES | % of control remaining [%]
NC(=O)C1(Cc2ccccc2-c2cccc(F)c2)CCN(C(=O)c2cccc(F)c2)CC1 [CBK285693] | 121.025
Cc1nnc(N2CCn3nc(C(O)Cc4ccccc4)cc3C2)s1 (stereo not shown) [CBK307152] | 108.442
Cc1ccc(Nc2cc(-c3cc4ccccc4o3)ncn2)cc1NS(C)(=O)=O [CBK091148] | 55.3241
O=C(OCc1ccccc1)N1CCC(C2OCc3cc(-c4ccc(C(=O)N5CCCC5)cc4)ccc3O2)CC1 (stereo not shown) [CBK153260] | 137.565
Cc1c(CNCCN2CCN(C)CC2c2ccccc2)cnn1C (stereo not shown) [CBK304056] | 144.431
Cn1c(=O)[nH]c(=O)c2c1nc(CN1CCOCC1)n2Cc1ccc(F)cc1 [CBK270040] | 147.343
CC(C)(C)C1CCc2c(sc(NC(=O)CCC(=O)O)c2C(=O)Nc2ccccc2C(F)(F)F)C1 (stereo not shown) [CBK264143] | 132.168
CC(C)c1noc([C@@H]2C[C@H](NS(=O)(=O)c3ccc(F)cc3)CN2C)n1 [CBK288864] | 133.369
CCN(CCc1nc2cc(OC)ccc2[nH]1)C(=O)c1ccc(=O)n(C)n1 [CBK307712] | 141.317
CCCCNC(=O)NC(=O)C1CCN(CCCOc2ccccc2)CC1 [CBK035198] | 78.4878
COc1ccc(N2CCN(CC(=O)N3c4ccccc4Sc4ccccc43)CC2)cc1 [CBK269398] | 118.941
Cc1ccc(-n2c(SCC(=O)Nc3ccc(C)c([N+](=O)[O-])c3)nnc2-c2ccccc2O)c(C)c1 [CBK268769] | 100.916
O=C(NC1Cc2ccccc2C1)c1cncnc1 [CBK200262] | 98.0291
NC(=O)c1cc([N+](=O)[O-])ccc1NCCN1C(=O)c2ccc(C(=O)O)cc2C1=O [CBK264444] | 130.444
CC(C)C[C@H]1NC(=O)C2(C/C=C/C[C@@H]3COCC[C@@H]3NC1=O)CCN(C(=O)[C@@H](N)Cc1c[nH]c3ccccc13)CC2 [CBK292200] | 112.552
C/C(CCS(=O)(=O)c1ccc(Br)cc1)=N\NC(N)=S [CBK261370] | 58.6754
O=C(Nc1cccc(Cl)c1)Nc1ccccc1NC(=O)Nc1cccc(Cl)c1 [CBK267624] | 119.06
CCOC(=O)N1CCN(CCCCc2ccc(F)cc2)CC1 [CBK025002C] | 150.076
O=C(Nc1cc(Cl)ccc1Cl)c1ncn[nH]1 [CBK028834] | 134.649
Cc1ccc(OCc2nc(C#N)c(NCCCN3CCOCC3)o2)cc1 [CBK266423] | 121.66
O=C(O)Cc1ccc(NC(=O)CN2C(=O)c3ccccc3C2=O)cc1 [CBK268562] | 150.314
FC(F)(F)c1cc(-c2cn3ccnc3c(NCCc3cccnc3)n2)cc(C(F)(F)F)c1 [CBK066146] | 113.571
CCOc1ccc2ccccc2c1CNCc1cccnc1 [CBK269934C] | 164.717
O=C(CN1CCN(c2nc3cc(Cl)ccc3s2)CC1)c1ccc2c(c1)OCCCO2 [CBK074737] | 92.7174

Random excerpt: two compounds from above.
SMILES | % of control remaining [%]
C/C(CCS(=O)(=O)c1ccc(Br)cc1)=N\NC(N)=S [CBK261370] | 58.6754
Cc1nnc(N2CCn3nc(C(O)Cc4ccccc4)cc3C2)s1 (stereo not shown) [CBK307152] | 108.442
